For the assay, the target named is BAK (mouse) (UniProt O08734). The assay is described as follows: BMH crosslinking of tBID-treated mitochondria, SDS-PAGE, anti-BAK immunoblot. For orientation: In western blotting, separated proteins are transferred to a membrane and probed.

No constants are given. Whether binding was seen depends on the method and setting. Some binding calls cover weakened binding; strength is not graded here.

Results on one molecule are retold here after patent US7247700.

B1: BAK (protein, mouse, UniProt O08734 2-209, looked up)
chain: ASGQGPGPPKVGCDESPSPSEQQVAQDTEEVFRSYVFYLHQQEQETQGAAAPANPEMDNLPLEPNSILGQVGRQLALIGDDINRRYDTEFQNLLEQLQPTAGNAYELFTKIASSLFKSGISWGRVVALLGFGYRLALYVYQRGLTGFLGQVTCFLADIILHHYIARWIAQRGGWVAALNFRRDPILTVMVIFGVVLLGQFVVHRFFRS
Consider B1, for which the binding entry is on record as “binds”.
